Results: PubChem BioAssay AID288 (DTP/NCI, 2004)
The list shows only some results of the screen, not a fair sample: it is rich in T/C values a quarter to a half above the control, in often repeated tests (any T/C) and in doses without a T/C. Further doses and runs are listed elsewhere. T/C is the treated group as % of the vehicle group. Schedule codes are those of the source, taken here to give the interval after Q, in days (D) or hours (H), and the number of doses after X. Some entries give survivors of the animals treated and no T/C: the source files T/C as zero there, which appears to mark a toxic dose or a test without result, not a measured value. Some survivor counts are full or nearly so, which does not show that the dose was tolerated: survival well below the control is almost never listed, so the zero probably covers shortened survival too. Survivors were counted at the toxicity check, usually on the fifth day, unless a day is given; later deaths do not show. Some doses were run more than once; the results are listed from low to high. For survival time, this PubChem deposit counts one and a half times the control or more as active, and values a quarter to a half above the control carry no call in these data; other NCI protocols may use other cut-offs. Some T/C values carry the count of animals alive at the toxicity check (mostly the fifth day); without a count, all were alive then.

Test system: BDF1 mice, M5076 sarcoma s.c., survival/tumor T/C
Assay: NCI In Vivo Anticancer Drug Screen. Data for tumor model Sarcoma M5076 (subcutaneous) in B6D2F1 (BDF1) mice
Procedure: The antitumor activity of compounds was measured in mice bearing transplantable tumors. Survival or tumor size were measured and the results are expressed as the measurement made in the treated group (T) divided by the measurement made in the vehicle treated control group (C). The tumor model used in this assay is Sarcoma M5076 (subcutaneous) in B6D2F1 (BDF1) mice

[1] = T/C endpoint: median survival time, dose: 200.0 mg/kg/injection, schedule: Q01DX009 (ip), vehicle: saline with Tween-80, higher T/C = longer survival
[2] = T/C endpoint: median tumor weight (est.), dose: 200.0 mg/kg/injection, schedule: Q01DX009 (ip), vehicle: saline with Tween-80, higher T/C = larger tumour

COC1=C(C)C(=O)C2=C(C1=O)C(CO)N1C(C#N)C3CC4C(C1C2N1CCOC41)N3C (centres undefined)
survivor count (T/C endpoint: median survival time, dose: 1.0 mg/kg/injection, schedule: Q01DX009 (ip), vehicle: saline + alcohol, higher T/C = longer survival): 0 of 10 on day 9 | survivor count (T/C endpoint: median tumor weight (est.), dose: 1.0 mg/kg/injection, schedule: Q01DX009 (ip), vehicle: saline + alcohol, higher T/C = larger tumour): 0 of 10 on day 20

OCCNCCN=C1CCC(=NCCNCCO)CC1
survivor count [1]: 0 of 10 on day 9 | survivor count [2]: 0 of 10 on day 20

Nc1nc(N)c2c(ccc3nccc32)[nH]1
survivor count (T/C endpoint: median survival time, dose: 50.0 mg/kg/injection, schedule: Q01DX009 (ip), vehicle: saline with Tween-80, higher T/C = longer survival): 0 of 10 on day 9 | survivor count (T/C endpoint: median tumor weight (est.), dose: 50.0 mg/kg/injection, schedule: Q01DX009 (ip), vehicle: saline with Tween-80, higher T/C = larger tumour): 0 of 10 on day 20

N[C@@H](Cc1ccc(N(CCCl)CCCl)cc1)C(=O)O
T/C (T/C endpoint: median survival time, dose: 1.5 mg/kg/injection, schedule: Q02DX033 (ip), vehicle: saline, higher T/C = longer survival): 140 % of control | T/C (T/C endpoint: median survival time, dose: 5.4 mg/kg/injection, schedule: Q01DX001 (ip), vehicle: saline, evaluated on day 17, higher T/C = longer survival): 123, 137, 162 % of control | T/C (T/C endpoint: median survival time, dose: 5.4 mg/kg/injection, schedule: Q01DX001 (ip), vehicle: saline, evaluated on day 54, higher T/C = longer survival): 138 % of control | T/C (T/C endpoint: median survival time, dose: 5.4 mg/kg/injection, schedule: Q01DX001 (ip), vehicle: saline, evaluated on day 61, higher T/C = longer survival): 121 % of control | T/C (T/C endpoint: median survival time, dose: 5.4 mg/kg/injection, schedule: Q01DX001 (ip), vehicle: saline, evaluated on day 68, higher T/C = longer survival): 128 % of control | T/C (T/C endpoint: median survival time, dose: 5.4 mg/kg/injection, schedule: Q01DX001 (ip), vehicle: saline, evaluated on day 75, higher T/C = longer survival): 163 % of control | T/C (T/C endpoint: median survival time, dose: 6.0 mg/kg/injection, schedule: Q04DX006 (ip), vehicle: saline, higher T/C = longer survival): 138 % of control | T/C (T/C endpoint: median survival time, dose: 9.0 mg/kg/injection, schedule: Q01DX001 (ip), vehicle: saline, evaluated on day 17, higher T/C = longer survival): 144, 147, 162 % of control | T/C (T/C endpoint: median survival time, dose: 9.0 mg/kg/injection, schedule: Q01DX001 (ip), vehicle: saline, evaluated on day 54, higher T/C = longer survival): 149 % of control | T/C (T/C endpoint: median survival time, dose: 9.0 mg/kg/injection, schedule: Q01DX001 (ip), vehicle: saline, evaluated on day 61, higher T/C = longer survival): 136 % of control [9 of 10 alive on day 61] | T/C (T/C endpoint: median survival time, dose: 9.0 mg/kg/injection, schedule: Q01DX001 (ip), vehicle: saline, evaluated on day 68, higher T/C = longer survival): 159 % of control | T/C (T/C endpoint: median survival time, dose: 9.0 mg/kg/injection, schedule: Q01DX001 (ip), vehicle: saline, evaluated on day 75, higher T/C = longer survival): 161 % of control | T/C (T/C endpoint: median survival time, dose: 15.0 mg/kg/injection, schedule: Q01DX001 (ip), vehicle: saline, evaluated on day 17, higher T/C = longer survival): 133, 162, 197 % of control | T/C (T/C endpoint: median survival time, dose: 15.0 mg/kg/injection, schedule: Q01DX001 (ip), vehicle: saline, evaluated on day 54, higher T/C = longer survival): 164 % of control | T/C (T/C endpoint: median survival time, dose: 15.0 mg/kg/injection, schedule: Q01DX001 (ip), vehicle: saline, evaluated on day 61, higher T/C = longer survival): 135 % of control | T/C (T/C endpoint: median survival time, dose: 15.0 mg/kg/injection, schedule: Q01DX001 (ip), vehicle: saline, evaluated on day 68, higher T/C = longer survival): 157 % of control | T/C (T/C endpoint: median survival time, dose: 15.0 mg/kg/injection, schedule: Q01DX001 (ip), vehicle: saline, evaluated on day 75, higher T/C = longer survival): 192 % of control | T/C (T/C endpoint: median survival time, dose: 25.0 mg/kg/injection, schedule: Q01DX001 (ip), vehicle: saline, evaluated on day 17, higher T/C = longer survival): 67 [6 of 7 alive], 138, 172 % of control | T/C (T/C endpoint: median survival time, dose: 25.0 mg/kg/injection, schedule: Q01DX001 (ip), vehicle: saline, evaluated on day 61, higher T/C = longer survival): 138 % of control | survivor count (T/C endpoint: median survival time, dose: 25.0 mg/kg/injection, schedule: Q01DX001 (ip), vehicle: saline, higher T/C = longer survival): 0 of 8 on day 54, 5 of 10 on day 68, 6 of 10 on day 75

COc1cc(-c2ccc(NC(=O)NC3CC3)c(OC)c2)ccc1NC(=O)NC1CC1
T/C (T/C endpoint: median tumor weight (est.), dose: 200.0 mg/kg/injection, schedule: Q01DX009 (ip), vehicle: saline with Tween-80, evaluated on day 20, higher T/C = larger tumour): 141 % of control

Nc1ncn(C2OC(CO)C(O)C2O)c(=O)n1 (centres undefined)
survivor count (T/C endpoint: median survival time, dose: 2.59 mg/kg/injection, schedule: Q04DX004 (ip), vehicle: saline, higher T/C = longer survival): 6 of 8 | survivor count (T/C endpoint: median survival time, dose: 4.32 mg/kg/injection, schedule: Q04DX004 (ip), vehicle: saline, higher T/C = longer survival): 6 of 8 | survivor count (T/C endpoint: median survival time, dose: 7.2 mg/kg/injection, schedule: Q04DX004 (ip), vehicle: saline, higher T/C = longer survival): 6 of 8 | survivor count (T/C endpoint: median survival time, dose: 12.0 mg/kg/injection, schedule: Q04DX004 (ip), vehicle: saline, higher T/C = longer survival): 10 of 10

COc1cc2c[n+](C)c3c4cc5c(cc4ccc3c2cc1OC)OCO5
survivor count (T/C endpoint: mean tumor weight, dose: 40.0 mg/kg/injection, schedule: Q02DX011 (ip), vehicle: Klucel (hydroxypropylcellulose) (HPC), higher T/C = larger tumour): 0 of 10 on day 22 and 5 of 10 on day 22 | survivor count (T/C endpoint: mean tumor weight, dose: 80.0 mg/kg/injection, schedule: Q02DX011 (ip), vehicle: Klucel (hydroxypropylcellulose) (HPC), higher T/C = larger tumour): 0 of 10 on day 22 | survivor count (T/C endpoint: median tumor weight (est.), dose: 40.0 mg/kg/injection, schedule: Q02DX011 (ip), vehicle: Klucel (hydroxypropylcellulose) (HPC), higher T/C = larger tumour): 0 of 10 on day 22

COC1CC2C=C(C)/C=C/C=C/C(=O)NC(c3ccccc3)C/C=C/CCC(O)CC(=O)C2=C1O (centres undefined)
survivor count (T/C endpoint: median survival time, dose: 8.0 mg/kg/injection, schedule: Q01DX009 (ip), vehicle: Klucel (hydroxypropylcellulose) (HPC), higher T/C = longer survival): 10 of 10 | survivor count (T/C endpoint: median survival time, dose: 16.0 mg/kg/injection, schedule: Q01DX009 (ip), vehicle: Klucel (hydroxypropylcellulose) (HPC), higher T/C = longer survival): 5 of 10 | survivor count (T/C endpoint: median tumor weight (est.), dose: 8.0 mg/kg/injection, schedule: Q01DX009 (ip), vehicle: Klucel (hydroxypropylcellulose) (HPC), higher T/C = larger tumour): 2 of 10 on day 20 | survivor count (T/C endpoint: median tumor weight (est.), dose: 16.0 mg/kg/injection, schedule: Q01DX009 (ip), vehicle: Klucel (hydroxypropylcellulose) (HPC), higher T/C = larger tumour): 0 of 10 on day 20

Nc1ncnc2c1ccn2C1OC(CO)C(O)C1O (centres undefined)
T/C (T/C endpoint: mean tumor weight, dose: 0.38 mg/kg/injection, schedule: Q02DX011 (ip), vehicle: saline, evaluated on day 22, higher T/C = larger tumour): 130 % of control

Nc1nnc[se]1
T/C (T/C endpoint: median survival time, dose: 400.0 mg/kg/injection, schedule: Q04DX003 (ip), vehicle: saline with Tween-80, higher T/C = longer survival): 130 % of control [7 of 10 alive on day 57]

O=C1/C(=C/c2ccc3c(c2)OCO3)SC(=S)N1c1ccc(Cl)c(Cl)c1
survivor count [1]: 10 of 10 | survivor count [2]: 4 of 10 on day 20

O=NN(CCCl)C(=O)NC1CCC(=O)NC1=O (centres undefined)
survivor count (T/C endpoint: median survival time, dose: 16.0 mg/kg/injection, schedule: Q01DX009 (ip), vehicle: saline + alcohol, higher T/C = longer survival): 10 of 10 | survivor count (T/C endpoint: median tumor weight (est.), dose: 16.0 mg/kg/injection, schedule: Q01DX009 (ip), vehicle: saline + alcohol, higher T/C = larger tumour): 0 of 10 on day 20

CCCCCCC(=O)O[C@H]1CC[C@H]2[C@@H]3CCC4=CC(=O)CC[C@]4(C)[C@H]3CC[C@]12C
T/C (T/C endpoint: mean tumor weight, dose: 7.5 mg/kg/injection, schedule: Q02DX011 (ip), vehicle: Klucel (hydroxypropylcellulose) (HPC), evaluated on day 22, higher T/C = larger tumour): 136 % of control

Cc1c2ccncc2c(C)c2c1[nH]c1ccccc12
survivor count (T/C endpoint: mean tumor weight, dose: 25.0 mg/kg/injection, schedule: Q02DX011 (ip), vehicle: water, higher T/C = larger tumour): 0 of 10 on day 22 | survivor count (T/C endpoint: mean tumor weight, dose: 50.0 mg/kg/injection, schedule: Q02DX011 (ip), vehicle: water, higher T/C = larger tumour): 0 of 10 on day 22 | survivor count (T/C endpoint: mean tumor weight, dose: 100.0 mg/kg/injection, schedule: Q02DX011 (ip), vehicle: water, higher T/C = larger tumour): 0 of 10 on day 22 | survivor count (T/C endpoint: median tumor weight (est.), dose: 25.0 mg/kg/injection, schedule: Q02DX011 (ip), vehicle: water, higher T/C = larger tumour): 0 of 10 on day 22 | survivor count (T/C endpoint: median tumor weight (est.), dose: 50.0 mg/kg/injection, schedule: Q02DX011 (ip), vehicle: water, higher T/C = larger tumour): 0 of 10 on day 22 | survivor count (T/C endpoint: median tumor weight (est.), dose: 100.0 mg/kg/injection, schedule: Q02DX011 (ip), vehicle: water, higher T/C = larger tumour): 0 of 10 on day 22

Cc1nc(N)nc(N)c1-c1ccc(Cl)c(Cl)c1
survivor count (T/C endpoint: median survival time, dose: 2.3 mg/kg/injection, schedule: Q01DX009 (ip), vehicle: normal media, higher T/C = longer survival): 6 of 10 on day 62 | survivor count (T/C endpoint: median survival time, dose: 3.5 mg/kg/injection, schedule: Q01DX009 (ip), vehicle: normal media, higher T/C = longer survival): 0 of 10 on day 62 | survivor count (T/C endpoint: median survival time, dose: 17.0 mg/kg/injection, schedule: Q04DX003 (ip), vehicle: normal media, higher T/C = longer survival): 0 of 10 on day 62 | survivor count (T/C endpoint: median survival time, dose: 25.0 mg/kg/injection, schedule: Q04DX003 (ip), vehicle: normal media, higher T/C = longer survival): 0 of 10 on day 62 | survivor count (T/C endpoint: median survival time, dose: 38.0 mg/kg/injection, schedule: Q01DX001 (ip), vehicle: normal media, higher T/C = longer survival): 5 of 10 on day 62 | survivor count (T/C endpoint: median survival time, dose: 38.0 mg/kg/injection, schedule: Q04DX003 (ip), vehicle: normal media, higher T/C = longer survival): 0 of 10 on day 62 | survivor count (T/C endpoint: median survival time, dose: 56.0 mg/kg/injection, schedule: Q01DX001 (ip), vehicle: normal media, higher T/C = longer survival): 0 of 10 on day 62 | survivor count (T/C endpoint: median survival time, dose: 84.0 mg/kg/injection, schedule: Q01DX001 (ip), vehicle: normal media, higher T/C = longer survival): 0 of 10 on day 62
